From US20110020802, “NUCLEIC ACIDS, METHODS AND KITS FOR THE DIAGNOSIS OF DYT6 PRIMARY TORSION DYSTONIA” (Mount Sinai School of Medicine of New York University, published 2011)

Target: T1, THAP1 F81L (Homo sapiens) (UniProt Q9NVV9)
T1 sequence (limits assumed): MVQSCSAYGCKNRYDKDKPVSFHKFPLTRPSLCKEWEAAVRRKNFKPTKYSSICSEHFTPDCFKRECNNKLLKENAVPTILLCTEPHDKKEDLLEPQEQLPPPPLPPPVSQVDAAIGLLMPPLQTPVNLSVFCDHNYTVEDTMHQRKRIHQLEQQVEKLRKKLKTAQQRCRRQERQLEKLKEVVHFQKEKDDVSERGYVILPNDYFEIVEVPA
Experiment: EMSA
Settings: bands dramatically reduced in intensity versus wild type at equal protein level; 150 mM KCl, 20 mM Tris pH 7.5, poly(dI-dC), room temperature; protein translated in vitro; protein details: N-terminal V5 (pcDNA3.1/nV5); label: 5'-32P

AGCAAGTAAGGGCAACTACTTCAT (double strand) [THABS probe]
binding result: binds more weakly

Weaker means in comparison with the reference protein, sequence or condition of that experiment. Tags and fusion partners may be left off the protein sequences shown.
